Experimental data reported in paper PMC3900477.

Sequences of proteins named here, by UniProt entry; tags and fusion partners are left off. A change or cut given only in a name is not applied to a line headed by its entry.
UniProt Q9ZPY8: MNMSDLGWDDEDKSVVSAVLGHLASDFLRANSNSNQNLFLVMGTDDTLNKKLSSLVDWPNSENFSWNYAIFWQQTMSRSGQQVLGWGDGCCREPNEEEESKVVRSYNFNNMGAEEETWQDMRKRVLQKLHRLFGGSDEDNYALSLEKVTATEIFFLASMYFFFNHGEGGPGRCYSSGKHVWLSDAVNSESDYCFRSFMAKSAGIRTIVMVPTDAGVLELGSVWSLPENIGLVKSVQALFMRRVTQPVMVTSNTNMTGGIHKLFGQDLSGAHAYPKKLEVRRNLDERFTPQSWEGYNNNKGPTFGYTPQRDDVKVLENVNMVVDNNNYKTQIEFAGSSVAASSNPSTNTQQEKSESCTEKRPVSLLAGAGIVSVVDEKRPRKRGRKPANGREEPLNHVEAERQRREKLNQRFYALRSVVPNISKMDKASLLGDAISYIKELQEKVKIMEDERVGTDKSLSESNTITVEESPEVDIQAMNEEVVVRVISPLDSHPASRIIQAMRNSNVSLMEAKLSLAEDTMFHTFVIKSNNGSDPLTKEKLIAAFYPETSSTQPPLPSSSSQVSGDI
UniProt Q9LNJ5: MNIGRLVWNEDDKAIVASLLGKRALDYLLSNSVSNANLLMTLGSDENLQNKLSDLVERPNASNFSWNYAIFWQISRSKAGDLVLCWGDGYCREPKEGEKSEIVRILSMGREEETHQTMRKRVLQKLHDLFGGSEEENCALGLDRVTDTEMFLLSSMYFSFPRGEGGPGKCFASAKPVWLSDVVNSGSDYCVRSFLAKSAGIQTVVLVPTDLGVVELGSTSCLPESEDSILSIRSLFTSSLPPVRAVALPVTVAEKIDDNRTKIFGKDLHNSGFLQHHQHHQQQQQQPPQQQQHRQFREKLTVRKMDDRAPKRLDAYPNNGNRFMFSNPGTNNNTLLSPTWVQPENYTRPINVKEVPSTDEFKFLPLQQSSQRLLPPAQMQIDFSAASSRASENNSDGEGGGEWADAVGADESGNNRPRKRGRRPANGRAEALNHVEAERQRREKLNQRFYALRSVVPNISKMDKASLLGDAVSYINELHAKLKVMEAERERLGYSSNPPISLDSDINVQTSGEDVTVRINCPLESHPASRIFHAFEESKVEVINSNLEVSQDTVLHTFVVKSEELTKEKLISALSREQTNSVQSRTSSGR
UniProt O23487: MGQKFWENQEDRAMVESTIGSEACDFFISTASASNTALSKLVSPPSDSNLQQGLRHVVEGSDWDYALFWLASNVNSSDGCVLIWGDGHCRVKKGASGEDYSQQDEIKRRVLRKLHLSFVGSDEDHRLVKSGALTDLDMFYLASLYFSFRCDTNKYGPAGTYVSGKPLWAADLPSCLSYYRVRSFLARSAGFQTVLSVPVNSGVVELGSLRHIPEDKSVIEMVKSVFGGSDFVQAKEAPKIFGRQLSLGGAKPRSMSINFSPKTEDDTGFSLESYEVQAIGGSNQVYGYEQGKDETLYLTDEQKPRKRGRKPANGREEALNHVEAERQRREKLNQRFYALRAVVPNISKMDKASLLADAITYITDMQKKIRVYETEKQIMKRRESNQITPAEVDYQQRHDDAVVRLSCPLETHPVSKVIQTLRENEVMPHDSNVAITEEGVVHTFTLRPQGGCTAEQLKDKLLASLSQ
UniProt Q9C5K8: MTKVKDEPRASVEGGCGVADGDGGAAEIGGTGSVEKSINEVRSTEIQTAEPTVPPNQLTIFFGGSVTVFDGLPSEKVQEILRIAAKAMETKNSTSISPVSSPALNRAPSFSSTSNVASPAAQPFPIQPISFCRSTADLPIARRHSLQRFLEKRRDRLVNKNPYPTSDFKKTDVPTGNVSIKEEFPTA
UniProt Q9S7M2: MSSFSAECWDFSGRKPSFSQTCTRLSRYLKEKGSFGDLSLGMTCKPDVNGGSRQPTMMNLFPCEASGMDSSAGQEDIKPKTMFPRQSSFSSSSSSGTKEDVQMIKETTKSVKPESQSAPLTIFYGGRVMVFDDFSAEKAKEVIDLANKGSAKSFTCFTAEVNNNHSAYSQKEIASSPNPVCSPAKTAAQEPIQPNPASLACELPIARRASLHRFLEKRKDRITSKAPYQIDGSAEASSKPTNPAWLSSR
UniProt O49687: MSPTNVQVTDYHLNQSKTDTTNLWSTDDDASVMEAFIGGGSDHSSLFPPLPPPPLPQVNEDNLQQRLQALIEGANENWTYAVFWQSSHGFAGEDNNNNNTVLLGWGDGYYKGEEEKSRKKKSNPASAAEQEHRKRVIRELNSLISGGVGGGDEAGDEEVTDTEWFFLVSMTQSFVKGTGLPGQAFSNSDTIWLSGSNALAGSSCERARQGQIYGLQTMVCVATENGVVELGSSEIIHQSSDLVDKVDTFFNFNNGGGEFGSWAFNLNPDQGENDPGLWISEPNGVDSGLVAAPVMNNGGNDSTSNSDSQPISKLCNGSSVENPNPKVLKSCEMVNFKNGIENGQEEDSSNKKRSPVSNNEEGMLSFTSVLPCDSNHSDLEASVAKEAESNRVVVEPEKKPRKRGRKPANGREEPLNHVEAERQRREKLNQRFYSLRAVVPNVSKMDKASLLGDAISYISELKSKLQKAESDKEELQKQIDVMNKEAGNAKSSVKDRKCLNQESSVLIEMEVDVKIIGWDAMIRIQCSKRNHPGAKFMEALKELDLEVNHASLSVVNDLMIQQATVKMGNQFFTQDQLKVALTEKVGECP
UniProt Q9SV55: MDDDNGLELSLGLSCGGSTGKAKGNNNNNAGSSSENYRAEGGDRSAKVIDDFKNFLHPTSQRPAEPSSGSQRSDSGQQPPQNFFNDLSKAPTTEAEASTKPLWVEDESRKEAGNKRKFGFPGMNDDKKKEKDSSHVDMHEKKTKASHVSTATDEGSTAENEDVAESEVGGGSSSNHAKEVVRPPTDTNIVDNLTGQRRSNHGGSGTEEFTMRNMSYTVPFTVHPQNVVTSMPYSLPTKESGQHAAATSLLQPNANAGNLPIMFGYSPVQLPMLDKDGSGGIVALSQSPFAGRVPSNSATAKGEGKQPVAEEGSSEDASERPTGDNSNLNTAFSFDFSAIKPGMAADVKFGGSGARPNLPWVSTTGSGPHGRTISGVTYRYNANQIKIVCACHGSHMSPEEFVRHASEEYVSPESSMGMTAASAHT
UniProt Q9FIP9: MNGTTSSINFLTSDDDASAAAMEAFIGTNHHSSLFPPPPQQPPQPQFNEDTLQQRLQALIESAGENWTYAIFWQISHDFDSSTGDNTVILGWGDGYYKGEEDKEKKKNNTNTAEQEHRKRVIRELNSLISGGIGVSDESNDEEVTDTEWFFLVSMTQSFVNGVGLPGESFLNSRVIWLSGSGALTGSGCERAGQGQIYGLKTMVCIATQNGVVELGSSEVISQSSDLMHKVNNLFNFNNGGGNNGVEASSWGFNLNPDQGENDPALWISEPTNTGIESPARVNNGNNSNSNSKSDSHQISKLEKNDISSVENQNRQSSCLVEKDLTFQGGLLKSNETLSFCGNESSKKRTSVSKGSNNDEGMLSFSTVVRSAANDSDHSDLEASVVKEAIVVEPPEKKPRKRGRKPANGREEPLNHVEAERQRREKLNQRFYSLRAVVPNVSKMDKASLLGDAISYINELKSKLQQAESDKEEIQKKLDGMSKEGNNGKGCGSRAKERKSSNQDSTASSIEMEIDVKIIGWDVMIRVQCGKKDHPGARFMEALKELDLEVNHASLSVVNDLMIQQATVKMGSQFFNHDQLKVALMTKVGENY

Columns and labels:
Test in all cases: affinity purification with mass spectrometry; tandem affinity purification (GS tag) from Arabidopsis PSB-D cell suspension cultures expressing N- or C-terminal TAP fusions of the bait; MALDI TOF/TOF; background subtracted
[1] = target: bHLH017-TAP (Arabidopsis thaliana) (UniProt Q9ZPY8)
[2] = target: bHLH013-TAP (Arabidopsis thaliana) (UniProt Q9LNJ5)
[3] = target: bHLH003-TAP (Arabidopsis thaliana) (UniProt O23487)

| binding [1] | binding [2] | binding [3] | Molecule |
| --- | --- | --- | --- |
| binds |  |  | JAZ12 (prey in TAP) (from UniProt Q9C5K8) |
| binds | binds |  | bHLH003 (prey in TAP) (from UniProt O23487) |
| binds |  |  | JAZ2 (prey in TAP) (from UniProt Q9S7M2) |
| no binding | no binding | no binding | MYC4 (from UniProt O49687 1-589) |
| binds |  |  | NINJA (prey in TAP) (from UniProt Q9SV55 1-425) |
|  |  | binds | bHLH013 (prey in TAP) (from UniProt Q9LNJ5) |
| no binding | no binding | no binding | MYC3 (from UniProt Q9FIP9 1-592) |
| binds |  |  | JAZ11 (prey in TAP) (protein, UniProt Q9M246 1-238) MAEVNGDFPVPSFADGTGSVSAGLDLLVERSIHEARSTEPDASTQLTIIFGGSCRVFNGVPAQKVQEIIRIAFAGKQTKNVTGINPALNRALSFSTVADLPIARRRSLQRFLEKRRDRSTKPDGSMILPSQLTIIFGGSFSVFDGIPAEKVQEILHIAAAAKATETINLTSINPALKRAISFSNASTVACVSTADVPIARRRSLQRFFEKRRHRFVHTKPYSATTSEADKNETSPIVT |

Results are given in words; binding and its absence hold for the method and conditions named. Binding seen in cells or lysates may run through a third protein. Here binding means that the protein was enriched with, or labelled near, the bait; the list need not be complete. No binding means not detected with the bait.
